Experiment [1] has as its target focal adhesion kinase (FAK) (human) (UniProt Q05397). Put plainly: HA-tagged β4-cyto in HEK-293 cells (FIG. 9F).
The target in the next experiment is Myc-tagged β4 integrin (UniProt P16144). Put plainly: far-Western on immunoprecipitated exogenous Myc-tagged β4 integrin (FIG. 1(h)).
Experiment [2] addresses β4 integrin (human) (UniProt P16144). Put plainly: Ni-bead pull-down from MDA-MB-231 lysate, anti-β4 integrin Western blot (FIG. 1(g)). On the technique in general: A western blot detects proteins with antibodies after separation by electrophoresis.
The target is the same in experiment [3]. Put plainly: far-Western on immunoprecipitated endogenous β4 integrin and in vitro pull-down (FIG. 1(c), 1(h)).
Experiment [4] shares this target. Put plainly: GST pull-down from HCT-116 lysate, anti-β4 integrin Western blot (FIG. 9(C)).

Chains of the proteins cited; added tags and fusions are not shown. Residues count along the entry.
UniProt Q05397, residues 2-1052: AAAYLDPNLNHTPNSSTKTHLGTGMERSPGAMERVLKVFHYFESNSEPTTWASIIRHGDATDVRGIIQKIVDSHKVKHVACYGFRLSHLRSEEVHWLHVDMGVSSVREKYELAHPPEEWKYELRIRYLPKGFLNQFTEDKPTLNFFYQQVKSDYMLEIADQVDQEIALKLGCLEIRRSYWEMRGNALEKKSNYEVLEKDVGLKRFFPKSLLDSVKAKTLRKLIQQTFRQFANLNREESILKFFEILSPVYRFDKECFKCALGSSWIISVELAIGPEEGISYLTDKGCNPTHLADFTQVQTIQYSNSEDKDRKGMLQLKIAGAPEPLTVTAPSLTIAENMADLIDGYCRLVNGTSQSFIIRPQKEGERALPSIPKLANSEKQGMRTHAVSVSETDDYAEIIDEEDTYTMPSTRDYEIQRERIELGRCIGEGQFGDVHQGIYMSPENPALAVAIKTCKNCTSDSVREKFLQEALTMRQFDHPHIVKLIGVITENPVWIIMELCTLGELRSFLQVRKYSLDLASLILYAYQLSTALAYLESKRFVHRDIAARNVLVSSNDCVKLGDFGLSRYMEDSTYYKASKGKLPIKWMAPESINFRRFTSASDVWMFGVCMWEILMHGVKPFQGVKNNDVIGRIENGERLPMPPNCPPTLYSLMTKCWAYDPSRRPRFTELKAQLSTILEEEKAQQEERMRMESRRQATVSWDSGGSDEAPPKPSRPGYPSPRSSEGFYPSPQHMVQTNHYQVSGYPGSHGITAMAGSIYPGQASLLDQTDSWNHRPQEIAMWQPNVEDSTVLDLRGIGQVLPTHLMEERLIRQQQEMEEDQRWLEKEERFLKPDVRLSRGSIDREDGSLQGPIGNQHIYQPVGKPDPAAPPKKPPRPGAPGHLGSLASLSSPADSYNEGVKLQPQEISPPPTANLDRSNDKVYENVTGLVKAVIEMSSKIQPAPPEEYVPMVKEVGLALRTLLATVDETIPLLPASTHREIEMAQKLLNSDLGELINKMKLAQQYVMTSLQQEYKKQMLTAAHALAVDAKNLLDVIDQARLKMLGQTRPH

These are yes or no findings as the source states them, for the method shown. For some assays here: Binding seen in cells or lysates may run through a third protein. Some results given as binding are weak or reduced against the parent protein; the word gives no strength. For some assays here: Where a sequence is shown, tags or fusion partners need not be part of it.

B1: β4 integrin cytodomain (protein, not shown: small tags and cut ends)
chain: NNMQRPGFATHAASINPTELVPYGLSLRLARLCTENLLKPDTRECAQLRQEVEENLNEVYRQISGVHKLQQTKFRQQPNAGKKQDHTIVDTVLMAPRSAKPALLKLTEKQVEQRAFHDLKVAPGYYTLTADQDARGMVEFQEGVELVDVRVPLFIRPEDDDEKQLLVEAIDVPAGTATLGRRLVNITIIKEQARDVVSFEQPEFSVSRGDQVARIPVIRRVLDGGKSQVSYRTQDGTAQGNRDYIPVEGELLFQPGEAWKELQVKLLELQEVDSLLRGRQVRRFHVQLSNPKFGAHLGQPHSTTIIIRDPDELDRSFTSQMLSSQPPPHGDLGAPQNPNAKAAGSRKIHFNWLPPSGKPMGYRVKYWIQGDSESEAHLLDSKVPSVELTNLYPYC
In the case of B1, in experiment [1], the binding entry is listed as “binds”.

B2: His-tagged FAK/N400 (protein, not shown: small tags and cut ends)
chain: MAAAYLDPNLNHTPSSSAKTHLGTGMERSPGAMERVLKVFHYFENSSEPTTWASIIRHGDATDVRGIIQKIVDCHKVKNVACYGLRLSHLQSEEVHWLHLDMGVSNVREKFELAHPPEEWKYELRIRYLPKGFLNQFTEDKPTLNFFYQQVKNDYMLEIADQVDQEIALKLGCLEIRRSYGEMRGNALEKKSNYEVLEKDVGLRRFFPKSLLDSVKAKTLRKLIQQTFRQFANLNREESILKFFEILSPVYRFDKECFKCALGSSWIISVELAIGPEEGISYLTDKGANPTHLADFNQVQTIQYSNSEDKDRKGMLQLKIAGAPEPLTVTAPSLTIAENMADLIDGYCRLVNGATQSFIIRPQKEGERALPSIPKLANNEKQGVRSHTVSVSETDDYAEI
On to B2, for which the binding result with Myc-tagged β4 integrin, in the experiment with β4 integrin (human) [2] and with β4 integrin (human) [3] was “binds” in each case.

B3: GST-FAK/N400 (protein, not shown: a dimerising Fc or GST)
chain: MAAAYLDPNLNHTPSSSAKTHLGTGMERSPGAMERVLKVFHYFENSSEPTTWASIIRHGDATDVRGIIQKIVDCHKVKNVACYGLRLSHLQSEEVHWLHLDMGVSNVREKFELAHPPEEWKYELRIRYLPKGFLNQFTEDKPTLNFFYQQVKNDYMLEIADQVDQEIALKLGCLEIRRSYGEMRGNALEKKSNYEVLEKDVGLRRFFPKSLLDSVKAKTLRKLIQQTFRQFANLNREESILKFFEILSPVYRFDKECFKCALGSSWIISVELAIGPEEGISYLTDKGANPTHLADFNQVQTIQYSNSEDKDRKGMLQLKIAGAPEPLTVTAPSLTIAENMADLIDGYCRLVNGATQSFIIRPQKEGERALPSIPKLANNEKQGVRSHTVSVSETDDYAEI
For the molecule B3, the binding entry in the experiment with β4 integrin (human) [4] is given as “binds”.

These data come from patent US20180177845A1, “METHOD FOR TREATMENT OR PREVENTION OF A CANCER” (priority 2016, published 2018).
